Earlier results, collected in patent US8440830B2, “Tetrahydro-fused pyridines as histone deacetylase inhibitors” (4SC AG, priority 2007, dated 2013).
At least one compound was matched to its structure with a doubt left.

Test system: acute human T-lymphoblastic leukemia cell line CCRF-CEM
Settings: about 10.000 unique accession numbers, Peart et al. 2005; cited from earlier work

## C/C=C1\NC(=O)[C@H]2CSSCC/C=C/[C@H](CC(=O)N[C@H](C(C)C)C(=O)N2)OC(=O)[C@H](C(C)C)NC1=O [FK228]
  share of analyzed genes whose expression was changed: 24.8%
